Results reported in PubChem BioAssay AID504834 (National Center for Advancing Translational Sciences (NCATS), 2011).
Out of some 320,000 compounds screened, about 22,000 (6.9%) were called active. The shares of active, inactive and inconclusive entries below differ from those in the screen. The call rests on the fitted dose curve; in most records, active means well fitted inhibition curve with a large enough effect; inconclusive means small, poorly fitted or top-dose-only effect, or another doubt; inactive means no such curve, though single readings can be large or run the other way. Potencies of inconclusive entries are doubtful fits and often do not repeat.

assay: Primary qHTS for delayed death inhibitors of the malarial parasite plastid, 96 hour incubation; conditions: P. falciparum luciferase reporter growth; series mostly up to 28.7 µM; activity change, negative = inhibition: at the top concentration
Procedure, shortened: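 Erythrocytes infected with luciferase-expressing P. falciparum were dispensed at 2% hematocrit and 0.05% parasitemia (final), then incubated with compounds 96 hours at 37 C in 5% CO2. Luminescence after detection reagent addition reported growth.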
On the % scale 0 is the no-effect control and ±100 the full control effect; potency means the concentration at half of the fitted maximal effect.

Compound | activity change, negative = inhibition | Potency
O=C1CN(C(=O)COC(=O)c2cnc(Cl)c(Cl)c2)c2ccccc2N1 | inactive: -23.4% | 
CC(C)[C@H](NC(=O)NCCc1ccc(F)cc1)C(=O)O | inactive: 6.96% | 
O=C(CSCc1ccc(F)cc1)NCc1cccs1 | inactive: -19.1% | 
COc1ccc(-c2noc(CN(C)Cc3ccccc3)n2)c(OC)c1OC |  | active: 3.7 µM
CCC(SC1=Nc2ccccc2C2=NC(CC(C)C)C(=O)N12)C(=O)Nc1ccc2c(c1)OCO2 (centres undefined) | inactive: 6.12% | 
CCOc1ccccc1/C=N/Nc1ccccc1[N+](=O)[O-] | inactive: 152% | 
CN(C)c1cccc2c(C#N)ccc(N(C)C)c12 |  | inconclusive: 0.037 µM [inhibitor, full curve]
C#CCOCCOCCOCCNc1nc(N2CCN(C(=O)Cn3cc(CCCN=C(N)N)nn3)CC2)nc(N2CCN(C(=O)[C@H](CCCCN)n3cc(CCCC)nn3)CC2)n1 |  | active: 11.7 µM
Cc1cc(C)n2c(Br)c(CSc3nc4ccccc4s3)nc2n1 |  | inconclusive: 14.7 µM [inhibitor, single point]
CC(C)(C)C1=NN(C(=O)c2ccccc2)C(O)(C(C)(C)C)C1 (centres undefined) |  | inconclusive: 0.104 µM [inhibitor, full curve, poor fit]
COc1ccc(C2C=C(c3ccc(C)c(C)c3)Nc3ncnn32)c(OC)c1OC (centres undefined) |  | active: 9.28 µM
O=C(c1cnc(-c2ccc(Cl)cc2)s1)c1ccc(Cl)cc1Cl | inactive: 11.8% | 
Oc1ccccc1N=Cc1ccc[nH]1 | inactive: 26.7% | 
CCOC(=O)c1c(NC(=O)C(C)Sc2c[nH]c3ccccc23)sc2c1CCC2 (centres undefined) |  | inconclusive: 10.4 µM [inhibitor, single point]
Cc1ccc(N2C(=O)c3ccccc3C2Nc2ccccc2F)nc1 (centres undefined) |  | inconclusive: 8.28 µM [inhibitor, partial curve, poor fit]
CCOC(=O)N1CCN(C(=O)c2ccc3c(c2)NC(=O)/C(=C\c2cccc(C)c2)S3)CC1 |  | inconclusive: 9.28 µM [inhibitor, single point]
O=C(Nc1ccc(S(=O)(=O)Nc2cnc3ccccc3n2)cc1)c1ccc(Cl)c([N+](=O)[O-])c1 |  | inconclusive: 10.4 µM [inhibitor, single point]
Cc1nn(CC(=O)Nc2cccc(C(F)(F)F)c2)c(=O)c2cccn12 |  | inconclusive: 18.5 µM [inhibitor, single point]
Cc1ccc2c(CC(=O)OCc3nc(N)nc(Nc4ccccc4C)n3)coc2c1 | inactive: 37.4% | 
O=C(C1=C[C@H](c2coc3ccccc3c2=O)C[C@H](OCc2ccc(CO)cc2)O1)N1CCN(Cc2ccccc2)CC1 |  | active: 5.86 µM
Cn1c(SCC(=O)Nc2ccc(F)cc2F)nnc1-c1cccnc1 |  | inconclusive: 9.28 µM [inhibitor, single point]
COc1ccc(C(=O)N/C(=C\c2ccc3c(c2)OCO3)C(=O)N2CCOCC2)cc1 | inactive: 24.5% | 

Compound | activity change, negative = inhibition | Potency
Cc1c(C)c2ccc(OCC(=O)NCCCn3ccnc3)cc2oc1=O | inactive: 1.21% | 
CC(=O)N1c2ccc(S(=O)(=O)N3CCCC(C(=O)N4CCC(C)CC4)C3)cc2CC1C (centres undefined) |  | inconclusive: 11.7 µM [inhibitor, single point]
Cc1ccc(-n2c(=O)c3sccc3n(CC(=O)N3CCCC3)c2=O)cc1 |  | inconclusive: 0.0026 µM [inhibitor, full curve, poor fit]
Cc1ccc(OCc2nnc(SCC(=O)c3cccs3)n2-c2ccccc2)cc1C |  | inconclusive: 18.5 µM [inhibitor, single point]
CC(C)c1ccc(NC(=O)c2ccc(Br)o2)cc1 | inactive: -8.43% | 
O=C(c1ccc(-c2cc3ccccc3oc2=O)cc1)N1CCN(c2ccc(Cl)cc2[N+](=O)[O-])CC1 |  | inconclusive: 1.65 µM [inhibitor, full curve]
Cc1cc(C(=O)NNc2c(Cl)cccc2Cl)n(C(C)(C)C)n1 |  | inconclusive: 0.928 µM [inhibitor, partial curve, poor fit]
CC(C)CNC(=O)c1cccc(NC(=O)COc2ccc([N+](=O)[O-])cc2)c1 |  | inconclusive: 0.37 µM [inhibitor, full curve, poor fit]
Nc1c(C(O)(C(F)(F)F)C(F)(F)F)cc(C(O)(C(F)(F)F)C(F)(F)F)c2ccccc12 |  | inconclusive: 18.5 µM [inhibitor, single point]
O=C(NC1CC2CCCC(C1)N2)c1ccccc1 (centres undefined) |  | inconclusive: 18.5 µM [inhibitor, single point]
O=C(CSc1nc2cc(Cl)c(Cl)cc2[nH]1)c1ccc2c(c1)OCO2 |  | active: 4.65 µM
Cc1nc(-c2ccc(F)cc2)c(CC(=O)Nc2cc(S(=O)(=O)N3CCCCC3)ccc2C)s1 |  | inconclusive: 10.4 µM [inhibitor, single point]
COc1ccccc1-n1c(SCC(=O)Nc2ccc(C)cc2)nc(O)cc1=O |  | inconclusive: 13.1 µM [inhibitor, single point]
CCn1c(=O)c2ccccc2n2c(SCC(N)=O)nnc12 |  | inconclusive: 8.28 µM [inhibitor, partial curve, poor fit]
CC(=O)OCCNc1cc(Sc2nc3ccccc3[nH]2)c2nonc2c1[N+](=O)[O-] |  | inconclusive: 1.47 µM [inhibitor, partial curve]
O=C(CN1CCCC1c1ccc2c(c1)OCCO2)NC(=O)Nc1ccccc1 (centres undefined) |  | inconclusive: 13.1 µM [inhibitor, single point]
COc1ccc(CCNCC(O)COc2ccc(OC)cc2C(C)(C)C)cc1 (centres undefined) |  | active: 2.33 µM
O=C(NNC(=O)c1ccccc1[N+](=O)[O-])c1ccccc1[N+](=O)[O-] |  | active: 7.38 µM
COc1ccc2oc(-c3ccccc3)c(C(=O)N(C)C)c2c1 | inactive: 5.67% | 
O=C(NCC(=O)N(Cc1cccs1)C(C(=O)NC1CCCCC1)c1ccncc1)c1ccco1 (centres undefined) |  | active: 5.86 µM
CCOC(=O)N1CCN(C(=O)CSc2nnc3[nH]c(=O)c(C)c(C)n23)CC1 |  | inconclusive: 2.62 µM [inhibitor, full curve]
Cc1n[nH]c(=S)n1/N=C/c1ccc(OCc2ccc(Cl)cc2Cl)cc1 |  | inconclusive: 1.65 µM [inhibitor, full curve, poor fit]

Some of the entries so far, in markdown.

| Compound | activity change, negative = inhibition | Potency |
| --- | --- | --- |
| COc1ccc(CCNCC(O)COc2ccc(OC)cc2C(C)(C)C)cc1 (centres undefined) |  | active: 2.33 µM |
| O=C(NNC(=O)c1ccccc1[N+](=O)[O-])c1ccccc1[N+](=O)[O-] |  | active: 7.38 µM |
| COc1ccc2oc(-c3ccccc3)c(C(=O)N(C)C)c2c1 | inactive: 5.67% |  |
